In article PMC6460569:
Results are given in words; binding and its absence hold for the method and conditions named. Binding seen in cells or lysates may run through a third protein. Some results given as binding are weak or reduced against the parent protein; the word gives no strength.

Chains of the proteins cited; added tags and fusions are not shown.
UniProt P25911: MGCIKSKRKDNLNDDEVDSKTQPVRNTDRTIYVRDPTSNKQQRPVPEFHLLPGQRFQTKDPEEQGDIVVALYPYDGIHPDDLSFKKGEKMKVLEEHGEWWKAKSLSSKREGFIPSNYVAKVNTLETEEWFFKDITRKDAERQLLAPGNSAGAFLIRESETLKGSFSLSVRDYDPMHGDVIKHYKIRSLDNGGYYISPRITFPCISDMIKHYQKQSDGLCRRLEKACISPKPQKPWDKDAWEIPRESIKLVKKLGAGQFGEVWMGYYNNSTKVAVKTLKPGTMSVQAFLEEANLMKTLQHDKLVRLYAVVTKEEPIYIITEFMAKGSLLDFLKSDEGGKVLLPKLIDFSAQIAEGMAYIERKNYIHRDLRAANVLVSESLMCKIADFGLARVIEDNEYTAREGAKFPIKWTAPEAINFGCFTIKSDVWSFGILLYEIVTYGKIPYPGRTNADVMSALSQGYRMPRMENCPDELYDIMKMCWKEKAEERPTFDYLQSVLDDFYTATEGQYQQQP

What was measured:
[1] = molecular target: T1, FcεRIβ (mouse (endogenous in BALB/C mouse tissue)) (UniProt P20490); assay: co-IP; immunoprecipitation of lung tumor tissue lysates (B16F1 lung metastasis in BALB/C mice after passive systemic anaphylaxis); with or without p62 siRNA or miR-135-5p mimic
T1 sequence: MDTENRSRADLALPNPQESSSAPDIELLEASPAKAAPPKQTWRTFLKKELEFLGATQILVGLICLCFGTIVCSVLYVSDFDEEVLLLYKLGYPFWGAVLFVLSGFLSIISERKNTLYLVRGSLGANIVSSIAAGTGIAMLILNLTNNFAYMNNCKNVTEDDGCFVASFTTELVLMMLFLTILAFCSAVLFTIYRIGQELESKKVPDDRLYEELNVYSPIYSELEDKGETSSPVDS

[2] = molecular target: T1, FcεRIβ (mouse (endogenous in BALB/C mouse tissue)); assay: co-IP; immunoprecipitation of tumor tissue lysates (B16F1 tumors in BALB/C mice after passive systemic anaphylaxis); with or without p62 siRNA or miR-135-5p mimic
[3] = molecular target: T1, FcεRIβ (mouse (endogenous in BALB/C mouse tissue)); assay: co-IP; immunoprecipitation of ear tissue lysates of BALB/C mice, passive cutaneous anaphylaxis (IgE, then DNP-HSA); with or without p62 siRNA, miR-135-5p mimic or GW4869
[4] = molecular target: T1, FcεRIβ (mouse (endogenous in BALB/C mouse tissue)); assay: co-IP; immunoprecipitation of tissue lysates of BALB/C mice, passive systemic anaphylaxis (IgE, then DNP-HSA); with or without p62 siRNA or GW4869; tissue not named
[5] = molecular target: T1, FcεRIβ (mouse (endogenous in BALB/C mouse tissue)); assay: as above; remark: listed apart in the source

Measured: binding

Lyn (from UniProt P25911 1-512) (enzyme)
not listed: [5]
binds: all other assays above

B1: SOCS1 (protein, UniProt O35716 1-212)
chain: MVARNQVAADNAISPAAEPRRRSEPSSSSSSSSPAAPVRPRPCPAVPAPAPGDTHFRTFRSHSDYRRITRTSALLDACGFYWGPLSVHGAHERLRAEPVGTFLVRDSRQRNCFFALSVKMASGPTSIRVHFQAGRFHLDGSRETFDCLFELLEHYVAAPRRMLGAPLRQRRVRPLQELCRQRIVAAVGRENLARIPLNPVLRDYLSSFPFQI
binds: [1] | [5] | [3]

B2: Transglutaminase II (TGaseII) (enzyme, UniProt P21981 1-686)
chain: MAEELLLERCDLEIQANGRDHHTADLCQEKLVLRRGQRFRLTLYFEGRGYEASVDSLTFGAVTGPDPSEEAGTKARFSLSDNVEEGSWSASVLDQQDNVLSLQLCTPANAPIGLYRLSLEASTGYQGSSFVLGHFILLYNAWCPADDVYLDSEEERREYVLTQQGFIYQGSVKFIKSVPWNFGQFEDGILDTCLMLLDMNPKFLKNRSRDCSRRSSPIYVGRVVSAMVNCNDDQGVLLGRWDNNYGDGISPMAWIGSVDILRRWKEHGCQQVKYGQCWVFAAVACTVLRCLGIPTRVVTNYNSAHDQNSNLLIEYFRNEFGELESNKSEMIWNFHCWVESWMTRPDLQPGYEGWQAIDPTPQEKSEGTYCCGPVSVRAIKEGDLSTKYDAPFVFAEVNADVVDWIRQEDGSVLKSINRSLVVGQKISTKSVGRDDREDITHTYKYPEGSPEEREVFTKANHLNKLAEKEETGVAMRIRVGDSMSMGNDFDVFAHIGNDTSETRECRLLLCARTVSYNGVLGPECGTEDINLTLDPYSENSIPLRILYEKYSGCLTESNLIKVRGLLIEPAANSYLLAERDLYLENPEIKIRVLGEPKQNRKLVAEVSLKNPLSDPLYDCIFTVEGAGLTKEQKSVEVSDPVPAGDLVKARVDLFPTDIGLHKLVVNFQCDKLKSVKGYRNVIIGPA
binds: [5] | [3]
